Results on five targets are retold here after the supplement of paper PMC11732987, “Enantioselective OTUD7B fragment discovery through chemoproteomics screening and high-throughput optimisation” (Communications Chemistry, 2025).

By UniProt entry, the sequences of proteins in these tests, tags left out. Where a name states a change or a piece, a line headed by the entry shows the natural chain unless it says otherwise.
UniProt Q9C0C2: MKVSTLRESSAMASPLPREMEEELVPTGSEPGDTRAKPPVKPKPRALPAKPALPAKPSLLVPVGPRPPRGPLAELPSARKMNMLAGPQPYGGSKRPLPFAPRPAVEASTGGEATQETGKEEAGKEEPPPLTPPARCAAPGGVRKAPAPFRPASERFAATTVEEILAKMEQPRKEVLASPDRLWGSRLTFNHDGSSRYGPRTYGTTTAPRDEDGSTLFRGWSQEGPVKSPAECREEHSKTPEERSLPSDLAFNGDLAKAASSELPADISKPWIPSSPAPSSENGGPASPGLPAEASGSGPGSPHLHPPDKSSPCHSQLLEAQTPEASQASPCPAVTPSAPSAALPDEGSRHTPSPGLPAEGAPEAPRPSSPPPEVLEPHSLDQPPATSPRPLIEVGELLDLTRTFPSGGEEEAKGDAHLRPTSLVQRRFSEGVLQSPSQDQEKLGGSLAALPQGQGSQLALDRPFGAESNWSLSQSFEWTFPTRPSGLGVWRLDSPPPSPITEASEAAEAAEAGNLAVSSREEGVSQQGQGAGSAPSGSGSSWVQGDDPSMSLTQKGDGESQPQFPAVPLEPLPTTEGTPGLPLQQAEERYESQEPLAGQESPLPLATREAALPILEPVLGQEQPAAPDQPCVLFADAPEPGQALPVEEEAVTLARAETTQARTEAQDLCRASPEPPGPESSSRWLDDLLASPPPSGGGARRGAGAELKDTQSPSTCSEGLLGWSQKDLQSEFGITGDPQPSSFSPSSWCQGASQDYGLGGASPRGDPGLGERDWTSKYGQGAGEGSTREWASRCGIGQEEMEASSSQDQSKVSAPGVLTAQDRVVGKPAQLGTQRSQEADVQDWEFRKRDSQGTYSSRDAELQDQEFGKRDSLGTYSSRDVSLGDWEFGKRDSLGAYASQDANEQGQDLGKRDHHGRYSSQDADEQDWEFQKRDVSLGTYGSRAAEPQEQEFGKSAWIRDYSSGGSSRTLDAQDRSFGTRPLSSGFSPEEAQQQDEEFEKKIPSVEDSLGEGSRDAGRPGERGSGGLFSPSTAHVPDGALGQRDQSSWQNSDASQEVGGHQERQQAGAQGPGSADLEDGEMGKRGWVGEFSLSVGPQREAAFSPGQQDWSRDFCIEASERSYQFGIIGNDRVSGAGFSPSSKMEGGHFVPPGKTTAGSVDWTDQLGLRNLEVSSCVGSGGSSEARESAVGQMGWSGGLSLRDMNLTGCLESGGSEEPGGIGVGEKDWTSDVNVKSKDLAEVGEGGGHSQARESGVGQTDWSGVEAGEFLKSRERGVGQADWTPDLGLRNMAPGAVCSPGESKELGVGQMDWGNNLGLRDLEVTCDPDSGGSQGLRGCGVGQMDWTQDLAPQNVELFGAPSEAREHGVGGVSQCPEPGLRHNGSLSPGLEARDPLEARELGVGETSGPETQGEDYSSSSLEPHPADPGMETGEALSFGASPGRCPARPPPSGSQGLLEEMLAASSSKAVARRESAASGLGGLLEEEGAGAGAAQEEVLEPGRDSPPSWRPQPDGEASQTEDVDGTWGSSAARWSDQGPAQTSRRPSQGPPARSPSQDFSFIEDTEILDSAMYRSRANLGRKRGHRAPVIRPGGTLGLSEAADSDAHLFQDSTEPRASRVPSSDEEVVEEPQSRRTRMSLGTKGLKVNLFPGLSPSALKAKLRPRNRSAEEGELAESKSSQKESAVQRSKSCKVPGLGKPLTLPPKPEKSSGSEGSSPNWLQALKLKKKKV
UniProt Q12888: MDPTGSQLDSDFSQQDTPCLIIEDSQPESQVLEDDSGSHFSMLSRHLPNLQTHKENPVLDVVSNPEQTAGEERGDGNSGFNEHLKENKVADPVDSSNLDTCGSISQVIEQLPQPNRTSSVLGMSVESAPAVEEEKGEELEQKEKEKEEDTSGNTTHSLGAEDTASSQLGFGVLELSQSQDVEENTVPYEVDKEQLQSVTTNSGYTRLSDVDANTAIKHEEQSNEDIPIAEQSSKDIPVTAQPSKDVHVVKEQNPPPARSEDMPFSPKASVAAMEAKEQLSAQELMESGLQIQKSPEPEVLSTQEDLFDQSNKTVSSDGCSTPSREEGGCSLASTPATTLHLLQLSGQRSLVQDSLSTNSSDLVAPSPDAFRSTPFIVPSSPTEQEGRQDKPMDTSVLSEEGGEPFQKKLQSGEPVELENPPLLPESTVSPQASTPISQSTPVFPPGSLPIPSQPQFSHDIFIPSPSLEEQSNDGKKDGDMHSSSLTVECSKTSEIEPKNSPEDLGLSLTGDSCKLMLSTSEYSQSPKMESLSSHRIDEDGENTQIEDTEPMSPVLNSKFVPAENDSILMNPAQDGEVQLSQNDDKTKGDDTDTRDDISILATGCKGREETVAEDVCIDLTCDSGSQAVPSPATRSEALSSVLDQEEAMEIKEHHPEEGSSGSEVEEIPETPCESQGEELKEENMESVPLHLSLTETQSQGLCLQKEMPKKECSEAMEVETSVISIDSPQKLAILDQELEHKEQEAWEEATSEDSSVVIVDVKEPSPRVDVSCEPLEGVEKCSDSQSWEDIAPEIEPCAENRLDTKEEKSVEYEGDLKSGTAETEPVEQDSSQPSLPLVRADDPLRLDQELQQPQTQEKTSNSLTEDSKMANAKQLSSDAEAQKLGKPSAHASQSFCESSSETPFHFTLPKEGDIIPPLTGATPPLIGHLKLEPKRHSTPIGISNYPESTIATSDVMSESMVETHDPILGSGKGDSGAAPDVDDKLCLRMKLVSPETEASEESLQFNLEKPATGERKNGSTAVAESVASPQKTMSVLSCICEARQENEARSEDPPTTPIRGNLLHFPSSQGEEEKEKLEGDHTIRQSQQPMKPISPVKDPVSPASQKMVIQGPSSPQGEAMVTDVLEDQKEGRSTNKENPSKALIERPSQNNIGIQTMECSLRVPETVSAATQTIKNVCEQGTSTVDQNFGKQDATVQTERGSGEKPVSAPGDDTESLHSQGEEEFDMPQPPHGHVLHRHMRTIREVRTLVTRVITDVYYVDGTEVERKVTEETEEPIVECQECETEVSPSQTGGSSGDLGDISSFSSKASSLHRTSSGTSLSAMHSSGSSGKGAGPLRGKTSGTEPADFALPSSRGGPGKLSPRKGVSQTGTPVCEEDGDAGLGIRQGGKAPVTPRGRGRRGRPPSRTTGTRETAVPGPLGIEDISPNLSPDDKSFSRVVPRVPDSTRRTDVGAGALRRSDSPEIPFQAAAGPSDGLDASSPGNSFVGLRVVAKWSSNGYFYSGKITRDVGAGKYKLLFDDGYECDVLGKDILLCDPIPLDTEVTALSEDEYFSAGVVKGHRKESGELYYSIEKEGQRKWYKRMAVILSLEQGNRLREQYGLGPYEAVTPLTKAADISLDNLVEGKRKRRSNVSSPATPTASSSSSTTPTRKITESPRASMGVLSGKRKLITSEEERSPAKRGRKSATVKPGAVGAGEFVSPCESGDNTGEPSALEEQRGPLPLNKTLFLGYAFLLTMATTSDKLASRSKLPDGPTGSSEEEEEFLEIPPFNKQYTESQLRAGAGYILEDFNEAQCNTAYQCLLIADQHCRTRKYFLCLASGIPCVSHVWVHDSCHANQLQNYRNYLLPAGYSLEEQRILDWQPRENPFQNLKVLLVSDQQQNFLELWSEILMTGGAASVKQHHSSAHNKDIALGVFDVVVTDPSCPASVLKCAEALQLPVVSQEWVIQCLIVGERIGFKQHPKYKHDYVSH
UniProt Q8N511: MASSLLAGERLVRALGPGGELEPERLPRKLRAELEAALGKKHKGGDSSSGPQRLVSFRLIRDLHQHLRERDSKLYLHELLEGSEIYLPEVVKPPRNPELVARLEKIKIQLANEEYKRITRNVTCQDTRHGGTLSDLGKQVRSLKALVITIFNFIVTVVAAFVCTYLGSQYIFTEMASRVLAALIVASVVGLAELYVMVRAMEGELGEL

Compound in experiment [1]: ClCC(=O)N[C@@H]1CCCc2ccccc12
The experiment is described as follows: log2 mean competition ratio of IA-DTB cysteine labelling (DMSO/compound) (log2 ratio); higher = stronger cysteine engagement by compound. The following applies: treatment time: 4 h, cell line lysate: HEK293T. On the procedure:
(§1)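 IA-DTB competitive cysteine chemoproteomics in HEK293T RIPA lysate. Lysates were treated with compound 29 or 30 at 50 or 200 µM for 4 h, then IA-DTB (500 µM, 1 h), trypsin-digested, NeutrAvidin-enriched and analysed by diaPASEF. Competition ratio = intensity DMSO / intensity compound (n=4 treated, n=64 DMSO); binding: mean log2 CR ≥ 1 and p ≤ 0.05 plus QC filters. Target is the cysteine site.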

Compound in experiment [2]: ClCC(=O)N[C@H]1CCCc2ccccc12
The description is as above. As to conditions: treatment time: 4 h, cell line lysate: HEK293T. As to the method:
as §1

The list shows a part of the results. The data scatter; read single values as rough.

Regarding TNKS1BP1 C1324 (UniProt Q9C0C2), the “log2 mean competition ratio” value was 0.104 in experiment [1] (50 µM), 0.045 in experiment [1] (200 µM), 0.0343 in experiment [2] (50 µM) and 0.123 in experiment [2] (200 µM).
Turning to TNKS1BP1 C1114 (UniProt Q9C0C2), the “log2 mean competition ratio” value in experiment [1] (50 µM) was 0.0903; in experiment [1] (200 µM), -0.0388; in experiment [2] (50 µM), 0.224; in experiment [2] (200 µM) it was 0.1.
For the target TRIM33 C299, the “log2 mean competition ratio” value is -0.156 in experiment [1] (50 µM), -0.0582 in experiment [1] (200 µM), 0.225 in experiment [2] (50 µM) and -0.0925 in experiment [2] (200 µM).
For TP53BP1 C1178 (UniProt Q12888), the “log2 mean competition ratio” value in experiment [1] (50 µM) was -0.356; in experiment [1] (200 µM), -0.58; in experiment [2] (50 µM), 0.165; in experiment [2] (200 µM), -0.375.
On to TMEM199 C124 (UniProt Q8N511), for which the “log2 mean competition ratio” value is -0.133 in experiment [1] (50 µM), 0.0203 in experiment [1] (200 µM), -0.175 in experiment [2] (50 µM) and 0.0527 in experiment [2] (200 µM).
